The target of data set [1] is cardiac troponin I (cTnI) (UniProt P19429). In words: lateral flow dual-aptamer sandwich. Conditions: 10 mM Tris-HCl, 1% Tween-20, 62.5-2000 ng/mL cTnI, 10 mM Tris-HCl pH 8.0, 1% (v/v) Tween-20, room temperature, 10 min, single-stranded DNA.
Data set [2] concerns the target human serum albumin (HSA) (human) (UniProt P02768). The data set is described as follows: lateral flow dual-aptamer sandwich. Conditions: 1 ug/mL, no significant sandwich signal (needs both aptamers), 10 mM Tris-HCl pH 8.0, 1% (v/v) Tween-20, room temperature, 10 min, single-stranded DNA.

For some of these results: Negatives hold for the conditions tested. At least one verdict rests on a figure or table, not on a statement of the authors. For some of these results: Construct, isoform or probe ends are uncertain for at least one entry.

For the sequence “CGCATGCCAAACGTTGCCTCATAGTTCCCTCCCCGTGTCC [Tro6 (T line)]”, the binding result in data set [1] (capture of AuNP@Tro4-cTnI, 5' biotin, on streptavidin, label: biotin) is listed as “binds”; in data set [2] (5' biotin, on streptavidin, label: biotin) it was “no binding”.
With “CGTGCAGTACGCCAACCTTTCTCATGCGCTGCCCCTCTTATTTTTTTTTTTTTTTTTTTT [Tro4]”, the binding result is reported as “binds” in data set [1] (sandwich with Tro6 at T line, 3' SH C6, on gold nanoparticles, label: AuNP) and “no binding” in data set [2] (3' SH C6, on gold nanoparticles, label: AuNP).

The values above are taken from paper PMC12730940.
